{"source": "patent US20240189287A1", "about": "“PERIPHERALLY RESTRICTED CB1 RECEPTOR BLOCKERS AND USES THEREOF” (BIONANOSIM (BNS) LTD, priority 2021, published 2024)", "test_system": "HepG2 Cells", "experiment": "Cell Viability Assay in HepG2 Cells at 72 h", "type": "cell-based, human", "details": "HepG2, 72 h; read-out: Absolute IC50", "method": "The liver plays a central role in transforming and clearing chemicals, and therefore is susceptible to toxicity of these agents. BNS808, BNS822 and other selected compounds were tested in the HepG2 assay using […] to evaluate cytotoxicity."}
{"smiles": "CN[C@@H]1C[C@H]2O[C@@](C)([C@@H]1OC)n1c3ccccc3c3c4c(c5c6ccccc6n2c5c31)C(=O)NC4", "note": "[Staurosporine, reference compound]", "values": [{"measurement": "IC50", "result": 0.08, "unit": "µM"}]}
